Test results taken from US20250163140A1.
These are yes or no findings as the source states them, for the method shown. Some results given as binding are weak or reduced against the parent protein; the word gives no strength.

Amino acid sequences for entries named in this document (tags omitted). Residues count along the entry.
UniProt Q9GZV9, residues 25-251: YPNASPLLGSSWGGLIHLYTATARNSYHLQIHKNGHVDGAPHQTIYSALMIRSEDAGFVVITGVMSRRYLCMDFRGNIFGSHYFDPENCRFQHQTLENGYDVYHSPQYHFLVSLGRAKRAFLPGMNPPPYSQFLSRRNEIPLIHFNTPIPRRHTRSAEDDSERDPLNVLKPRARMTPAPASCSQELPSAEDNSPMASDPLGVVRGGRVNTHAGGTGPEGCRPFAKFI

Experiments:
[1] = molecular target: Recombinant Human FGF-23 (R&D Systems, Cat No. 2604-FG-025/CF) (human) (UniProt Q9GZV9); experiment: SPR, antibody captured on Protein A chip, FGF-23 analyte
[2] = molecular target: Recombinant Human FGF-23 (R&D Systems, Cat No. 2604-FG-025/CF) (human) (UniProt Q9GZV9); experiment: SPR, antibody captured by anti-human IgG, FGF-23 analyte

B1: antibody A-1 (antibody, V domains shown)
VH: QVQLVQSGAEVKKPGASVKVSCKASGYTFTNHYMHWVRQAPGQGLEWMGLINPWHGTFSNAQKFQGRVTMTRDTSTSTVYMELSSLRSEDTAVYYCARDAVDAFDFWGQGTMVTVSS
VL: AIQLTQSPSSLSASVGDRVTITCRASQGISSALVWYQQKPGKAPKLLIYDASSLESGVPSRFSGSGSGTDFTLTISSLQPEDFATYYCQQFNDYFTFGPGTKVDIK
binding [1]: binds

B2: antibody A-2 (antibody, V domains shown)
VH: QVQLVQSGAEVKKPGASVKVSCKASGYTFTNHYMHWVRQAPGQGLEWMGLINPWHGTFSNAQKFQGRVTMTRDTSTSTVYMELSSLRSEDTAVYYCARDYVDAFDFWGQGTMVTVSS
VL: AIQLTQSPSSLSASVGDRVTITCRASQGISSALVWYQQKPGKAPKLLIYDASSLESGVPSRFSGSGSGTDFTLTISSLQPEDFATYYCQQFNDYFTFGPGTKVDIK
binding [1]: binds

B3: antibody A-3 (antibody, V domains shown)
VH: QVQLVQSGAEVKKPGASVKVSCKASGYTFTNHYMHWVRQAPGQGLEWMGIINPISGSTSNAQKFQGRVTMTRDTSTSTVYMELSSLRSEDTAVYYCARDAVDAFDFWGQGTMVTVSS
VL: AIQLTQSPSSLSASVGDRVTITCRASQGISSALVWYQQKPGKAPKLLIYDASSLESGVPSRFSGSGSGTDFTLTISSLQPEDFATYYCQQMYDDFNFGPGTKVDIK
binding [1]: binds

B4: antibody A-4 (antibody, V domains shown)
VH: QVQLVQSGAEVKKPGASVKVSCKASGYTFTNHYMHWVRQAPGQGLEWMGIINPISGSTSNAQKFQGRVTMTRDTSTSTVYMELSSLRSEDTAVYYCARDYVDAFDFWGQGTMVTVSS
VL: AIQLTQSPSSLSASVGDRVTITCRASQGISSALVWYQQKPGKAPKLLIYDASSLESGVPSRFSGSGSGTDFTLTISSLQPEDFATYYCQQMYDDFNFGPGTKVDIK
binding [1]: binds

B5: antibody A-5 (antibody, V domains shown)
VH: QVQLVQSGAEVKKPGASVKVSCKASGYTFTNHYMHWVRQAPGQGLEWMGIINPISGSTSNAQKFQGRVTMTRDTSTSTVYMELSSLRSEDTAVYYCARDAVDAFDFWGQGTMVTVSS
VL: AIQLTQSPSSLSASVGDRVTITCRASQDVSTALLWYQQKPGKAPKLLIYDASSLESGVPSRFSGSGSGTDFTLTISSLQPEDFATYYCQQFNDYFTFGPGTKVDIK
binding [1]: binds

B6: antibody A-6 (antibody, V domains shown)
VH: QVQLVQSGAEVKKPGASVKVSCKASGYTFTNHYMHWVRQAPGQGLEWMGIINPISGSTSNAQKFQGRVTMTRDTSTSTVYMELSSLRSEDTAVYYCARDYVDAFDFWGQGTMVTVSS
VL: AIQLTQSPSSLSASVGDRVTITCRASQDVSTALLWYQQKPGKAPKLLIYDASSLESGVPSRFSGSGSGTDFTLTISSLQPEDFATYYCQQFNDYFTFGPGTKVDIK
binding [1]: binds

B7: antibody A-7 (antibody, V domains shown)
VH: QVQLVQSGAEVKKPGASVKVSCKASGYTFTNHYMHWVRQAPGQGLEWMGIINPISGSTSNAQKFQGRVTMTRDTSTSTVYMELSSLRSEDTAVYYCARDAVDAFDFWGQGTMVTVSS
VL: AIQLTQSPSSLSASVGDRVTITCRASQGISSALVWYQQKPGKAPKLLIYDASSLESGVPSRFSGSGSGTDFTLTISSLQPEDFATYYCQQLYDDFDFGPGTKVDIK
binding [1]: binds

B8: antibody A-8 (antibody, V domains shown)
VH: QVQLVQSGAEVKKPGASVKVSCKASGYTFTNHYMHWVRQAPGQGLEWMGIINPISGSTSNAQKFQGRVTMTRDTSTSTVYMELSSLRSEDTAVYYCARDYVDAFDFWGQGTMVTVSS
VL: AIQLTQSPSSLSASVGDRVTITCRASQGISSALVWYQQKPGKAPKLLIYDASSLESGVPSRFSGSGSGTDFTLTISSLQPEDFATYYCQQLYDDFDFGPGTKVDIK
binding [1]: binds

B9: antibody A-10 (antibody, V domains shown)
VH: QVQLVQSGAEVKKPGASVKVSCKASGYTFTNHYMHWVRQAPGQGLEWMGIINPISGSTSNAQKFQGRVTMTRDTSTSTVYMELSSLRSEDTAVYYCARDYVDAFDFWGQGTMVTVSS
VL: AIQLTQSPSSLSASVGDRVTITCRASQGISSALVWYQQKPGKAPKLLIYDASSLESGVPSRFSGSGSGTDFTLTISSLQPEDFATYYCQQFYDDFDFGPGTKVDIK
binding [1]: binds

B10: antibody I100K (antibody, human IgG1, V domains shown)
VH: QVQLVQSGAEVKKPGASVKVSCKASGYTFTNHYMHWVRQAPGQGLEWMGIINPISGSTSNAQKFQGRVTMTRDTSTSTVYMELSSLRSEDTAVYYCARDKVDAFDFWGQGTMVTVSS
VL: AIQLTQSPSSLSASVGDRVTITCRASQGISSALVWYQQKPGKAPKLLIYDASSLESGVPSRFSGSGSGTDFTLTISSLQPEDFATYYCQQFNDYFTFGPGTKVDIK
binding [2]: binds

B11: antibody I100E (antibody, human IgG1, V domains shown)
VH: QVQLVQSGAEVKKPGASVKVSCKASGYTFTNHYMHWVRQAPGQGLEWMGIINPISGSTSNAQKFQGRVTMTRDTSTSTVYMELSSLRSEDTAVYYCARDEVDAFDFWGQGTMVTVSS
VL: AIQLTQSPSSLSASVGDRVTITCRASQGISSALVWYQQKPGKAPKLLIYDASSLESGVPSRFSGSGSGTDFTLTISSLQPEDFATYYCQQFNDYFTFGPGTKVDIK
binding [2]: binds

B12: antibody I100T (antibody, human IgG1, V domains shown)
VH: QVQLVQSGAEVKKPGASVKVSCKASGYTFTNHYMHWVRQAPGQGLEWMGIINPISGSTSNAQKFQGRVTMTRDTSTSTVYMELSSLRSEDTAVYYCARDTVDAFDFWGQGTMVTVSS
VL: AIQLTQSPSSLSASVGDRVTITCRASQGISSALVWYQQKPGKAPKLLIYDASSLESGVPSRFSGSGSGTDFTLTISSLQPEDFATYYCQQFNDYFTFGPGTKVDIK
binding [2]: binds

B13: antibody I100Q (antibody, human IgG1, V domains shown)
VH: QVQLVQSGAEVKKPGASVKVSCKASGYTFTNHYMHWVRQAPGQGLEWMGIINPISGSTSNAQKFQGRVTMTRDTSTSTVYMELSSLRSEDTAVYYCARDQVDAFDFWGQGTMVTVSS
VL: AIQLTQSPSSLSASVGDRVTITCRASQGISSALVWYQQKPGKAPKLLIYDASSLESGVPSRFSGSGSGTDFTLTISSLQPEDFATYYCQQFNDYFTFGPGTKVDIK
binding [2]: binds

B14: antibody I100M (antibody, human IgG1, V domains shown)
VH: QVQLVQSGAEVKKPGASVKVSCKASGYTFTNHYMHWVRQAPGQGLEWMGIINPISGSTSNAQKFQGRVTMTRDTSTSTVYMELSSLRSEDTAVYYCARDMVDAFDFWGQGTMVTVSS
VL: AIQLTQSPSSLSASVGDRVTITCRASQGISSALVWYQQKPGKAPKLLIYDASSLESGVPSRFSGSGSGTDFTLTISSLQPEDFATYYCQQFNDYFTFGPGTKVDIK
binding [2]: binds

B15: antibody I100F (antibody, human IgG1, V domains shown)
VH: QVQLVQSGAEVKKPGASVKVSCKASGYTFTNHYMHWVRQAPGQGLEWMGIINPISGSTSNAQKFQGRVTMTRDTSTSTVYMELSSLRSEDTAVYYCARDFVDAFDFWGQGTMVTVSS
VL: AIQLTQSPSSLSASVGDRVTITCRASQGISSALVWYQQKPGKAPKLLIYDASSLESGVPSRFSGSGSGTDFTLTISSLQPEDFATYYCQQFNDYFTFGPGTKVDIK
binding [2]: binds
